# In all, about 400,000 compounds went through this assay and about 5,500 (1.4%) were called active. Inconclusive means that the source gave no clear call. Such entries were picked first, then a sample of the others. The call rests on the fitted dose curve; in most records, active means well fitted cell-killing curve with a large enough effect; inconclusive means small, poorly fitted or top-dose-only effect, or effect the other way; inactive means flat fitted curve, though single readings scatter. A potency beside an inconclusive call is a rough fit, not a confirmed value.
# Test: qHTS assay for MDR1-selective chemotherapeutics: Primary screen using the parental adenocarcinoma cell KB-3-1; further: nearly all actives have a fitted effect of over 60% in size
# Settings: KB-3-1 viability, CellTiter-Glo ATP luminescence, 72 h; activity change, negative = cytotoxic: at 46.1 µM (top of the series)
# Summary of the method: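 Multi-concentration cytotoxicity screen in KB-3-1 cells grown in DMEM lacking phenol red with 10% FBS. After 72 h at 37 °C with compound, ATP-dependent luminescence was recorded.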
# On the % scale 0 is the no-effect control and ±100 the full control effect; potency means the concentration at half of the fitted maximal effect.
Compound,Potency,"activity change, negative = cytotoxic"
Cn1c2ccccc2c(=O)c2ccc(-c3ccc4c(c3)OCO4)cc21,"inconclusive: 25.9 µM [cytotoxic, single point]",
Nc1ccc(/C=C/c2ccc3cccnc3c2)cc1,"inconclusive: 29.1 µM [cytotoxic, single point]",
Cc1cccc2cc(C#N)c(NCCNC(=O)COc3ccccc3)nc12,"inconclusive: 0.366 µM [rising, full curve]",
Cc1ccc(-n2c(C)cc(-c3csc(N)n3)c2C)cc1,"inconclusive: 29.1 µM [cytotoxic, single point]",
C=Cn1cc[n+](CC(=O)c2ccc(-c3ccccc3)cc2)c1,"inconclusive: 23.1 µM [cytotoxic, single point]",
CCCCOc1ccc2c(c1)/C(=C(\C(Cl)=C(Cl)Cl)[N+](=O)[O-])N2,"inconclusive: 11.6 µM [cytotoxic, single point]",
COc1cccc(CN(C)C(=O)c2ccc3c(=O)n4c(nc3c2)CCC4)c1,,inactive: -2.56%
CCn1c(=O)cc(OCC(=O)NCc2ccc(C)o2)c2ccccc21,,inactive: -12.2%
Cc1c(Br)c([N+](=O)[O-])nn1CCCC(=O)N1CCN(c2ccccc2)CC1,"inconclusive: 7.31 µM [rising, partial curve, poor fit]",
COc1ccc(CNC(=S)Nc2ccccc2Cl)cc1,"inconclusive: 20.6 µM [cytotoxic, partial curve, poor fit]",
O=C(/C=C/c1cccc([N+](=O)[O-])c1)Nc1cccc(NC(=O)c2ccco2)c1,"inconclusive: 29.1 µM [cytotoxic, single point]",
CCn1c(=NC(=O)C2COc3ccccc3O2)sc2c(C)ccc(OC)c21 (centres undefined),"inconclusive: 29.1 µM [cytotoxic, single point]",
CCSc1ncc(Cl)c(C(=O)N2CCN(c3ccccc3OC)CC2)n1,active: 6.51 µM,
CCn1c(=O)c2c(n3cnnc13)-c1ccccc1CC21CCCCC1,"inconclusive: 23.1 µM [cytotoxic, single point]",
CCC(=O)N1N=C(c2ccc(NS(=O)(=O)c3ccccc3)cc2)CC1c1ccco1 (centres undefined),"inconclusive: 29.1 µM [cytotoxic, single point]",
O=[N+]([O-])c1cc(/C=N/Nc2nc(N3CCOCC3)nc(N3CCOCC3)n2)ccc1Cl,"inconclusive: 8.2 µM [rising, partial curve]",
N#CC(C(=O)c1ccccc1Cl)=C1SCCCS1,,inconclusive: 39.9%
O=C1CC(C(=O)N(CC2CCCO2)C(C(=O)NC2CCCCC2)c2ccncc2)CS1 (centres undefined),,inactive: 3.52%
Cc1cccc(C)c1NC(=O)C(c1ccncc1)N1CCN(CCN(C)C)CC1 (centres undefined),,inactive: 9.3%
COc1ccc(NC(=O)C2Cc3c(-c4ccccc4Oc4ccccc4)ccnc3O2)cc1 (centres undefined),,inactive: -1.63%
CC(C)CC1C(=O)N(Cc2cn(Cc3ccco3)nn2)CCS(=O)(=O)N1Cc1ccc(-c2ccccc2)cc1 (centres undefined),"inconclusive: 29.1 µM [cytotoxic, single point]",
Cc1nn(-c2ccccc2)c2sc(C(=O)N(CC(=O)NC(C)(C)C)Cc3ccco3)cc12,"inconclusive: 29.1 µM [cytotoxic, single point]",
O=C(NNC1=C(C(=O)C(F)(F)F)CCC1)c1cccc(O)c1,"inconclusive: 32.6 µM [cytotoxic, single point]",

Compound,Potency,"activity change, negative = cytotoxic"
COc1ccc(Cn2ccc3nc(C)c(C(=O)Nc4ccc(OC)cc4)cc3c2=O)cc1,"inconclusive: 18.4 µM [cytotoxic, partial curve, poor fit]",
O=c1c2c3nc4ccccc4nc3n(-c3ccc4c(c3)OCCO4)c2ncn1C1CCCC1,"inconclusive: 20.6 µM [cytotoxic, single point]",
O=C(C(Cc1ccccc1)n1cccc1)N1CCN(c2cccc(Cl)c2)CC1 (centres undefined),"inconclusive: 29.1 µM [cytotoxic, single point]",
O=C(COc1ccc(Cl)cc1Cl)NCC1(N2CCOCC2)CCCCC1,"inconclusive: 32.6 µM [cytotoxic, single point]",
O=c1cc(-c2ccc(O)cc2)oc2cc(O)cc(O)c12,"inconclusive: 23.1 µM [cytotoxic, single point]",
O=C(CN1CCCC1)NC(c1ccccc1)c1ccccc1,,inactive: 7.51%
Cc1ccc(NC2=C/C(=N\S(=O)(=O)c3cccs3)c3ccccc3C2=O)c(C)c1,active: 6.51 µM,
C/C(=N\NC(=O)c1nnn(-c2nonc2N)c1CSc1ccc(C)cc1)c1cccnc1,,inactive: -4.33%
COc1ccc(CCNC(=O)Nc2nnc([C@@H]3C[C@H](O)[C@@H](CO)O3)s2)cc1OC,"inconclusive: 29.1 µM [cytotoxic, single point]",
O=C(Cn1c2ccccc2c(=O)c2cc([N+](=O)[O-])ccc21)Nc1ccccc1Cl,,inactive: -8.18%
CN(C)c1ccc(/C=C/c2sc3ccccc3[n+]2CCCCBr)cc1,active: 1.3 µM,
COc1ccc(/C=N/Nc2ccccc2C(=O)O)cc1,"inconclusive: 29.1 µM [cytotoxic, single point]",
C#Cc1ccc([C@@H]2C=C(C(=O)N3CCN(Cc4ccccc4)CC3)O[C@H](OCC)[C@H]2CCCO)cc1,"inconclusive: 32.6 µM [cytotoxic, single point]",
CCCCOC(=O)c1ccc(NC(=O)CN2C(=O)NC3(CCCCCC3)C2=O)cc1,"inconclusive: 29.1 µM [cytotoxic, partial curve, poor fit]",
Cc1cc(Cl)ccc1NC(=S)N1CCN(Cc2ccccc2)CC1,,inactive: -12.1%
CCOC(=O)c1cc([N+](=O)[O-])cc([N+](=O)[O-])c1Sc1ncnc2nc[nH]c12,"inconclusive: 4.61 µM [cytotoxic, full curve, poor fit]",
C=CCc1cccc(CNc2ccc(Br)cc2)c1O,,inconclusive: -81.2%
O=C(CCNC(=O)Cn1cnc2ccccc2c1=O)NCC1COc2ccccc2O1 (centres undefined),"inconclusive: 29.1 µM [cytotoxic, single point]",
O=[N+]([O-])c1ccc(NCCOc2ccccc2Cl)nc1,"inconclusive: 29.1 µM [cytotoxic, single point]",
Cc1cc(Nc2ccc(Cl)cc2)nc(N)n1,"inconclusive: 20.6 µM [cytotoxic, single point]",
CCc1sc(C(=O)Nc2nc(-c3ccccn3)cs2)cc1C,"inconclusive: 16.4 µM [cytotoxic, partial curve]",
CCCNC(=O)C1(CC2CC(c3ccccc3)=NO2)CCN(C(=O)C2(C)CC2)CC1 (centres undefined),"inconclusive: 0.651 µM [cytotoxic, full curve]",
CCOC(=O)Cc1ccc(NC(=O)NCc2c(-n3cccc3)sc3c2CCCC3)cc1,,inactive: 15.7%

# Quoted at random: 3 compounds from above.
Compound,Potency,"activity change, negative = cytotoxic"
N#CC(C(=O)c1ccccc1Cl)=C1SCCCS1,,inconclusive: 39.9%
Cc1ccc(NC2=C/C(=N\S(=O)(=O)c3cccs3)c3ccccc3C2=O)c(C)c1,active: 6.51 µM,
Cc1cc(Cl)ccc1NC(=S)N1CCN(Cc2ccccc2)CC1,,inactive: -12.1%

# (next part)

Compound,Potency,"activity change, negative = cytotoxic"
COc1ccc(S(=O)(=O)NCc2cccnc2)cc1C(=O)Nc1ccccc1,,inactive: -6.67%
CC(O)CNc1nc2sc3c(c2c(=O)n1CCc1ccccc1)CCCCC3 (centres undefined),,inactive: -0.628%
CCOC(=O)c1cnc(-n2cc(C)cn2)nc1Nc1ccccc1OC,"inconclusive: 5.8 µM [rising, partial curve]",
Cc1ccc(NC(=O)c2c(C)cc(C)nc2SCC(=O)Nc2ccc(Br)cc2)cc1,,inactive: 1.24%
COc1ccc(-c2ccc(CN3C(CC(C)C)C(=O)N(Cc4cn(CCC5OCCCO5)nn4)CCS3(=O)=O)cc2)cc1OC (centres undefined),"inconclusive: 23.1 µM [cytotoxic, single point]",
Cc1ccc(NC(=S)N2CCCC2)cc1,,inactive: -0.526%
CC1Oc2ccccc2N(CC(=O)NCc2ccc3c(c2)OCO3)C1=O (centres undefined),,inactive: 2.16%
O=C(N/N=C/c1cccc2ccccc12)c1ccncc1,,inactive: 1.94%
CC(C)(C)Cc1nnc(NC(=O)CSc2ccccc2)s1,"inconclusive: 18.4 µM [rising, partial curve, poor fit]",
COc1ccc(CNC(=O)CSc2nnnn2Cc2ccccc2)cc1,active: 16.4 µM,
Cc1ccc(-n2cccn2)c(CN2CCCC(C(=O)c3ccc4c(c3)OCO4)C2)c1 (centres undefined),"inconclusive: 20.6 µM [cytotoxic, single point]",
Cc1ccc(-c2csc(-c3nc(-c4ccc(Br)s4)cs3)n2)cc1,,inactive: 6.48%
COc1ccc(C2Oc3ccccc3C3=C2C(c2cccs2)n2ncnc2N3)cc1 (centres undefined),active: 5.8 µM,
COc1cc(-c2nnc(SCC(=O)Nc3ccc4c(c3)OCCO4)o2)cc(OC)c1OC,"inconclusive: 29.1 µM [cytotoxic, single point]",
CC(=O)C(N=Nc1ccccc1)(Sc1nnc(-c2ccccc2)n1-c1ccccc1)C(C)=O,"inconclusive: 29.1 µM [cytotoxic, single point]",
O=C(NC1CCN(Cc2nnnn2CCc2ccccc2)CC1)c1ccccc1F,,inactive: 1.1%
Cn1c(=S)[nH]c2cc(C(=O)N3CCN(Cc4cccs4)CC3)ccc2c1=O,,inconclusive: -21.2%
C=CC[C@@H](CC(=O)N(CCO)Cc1ccccc1)C(=O)N[C@@H](COC(=O)[C@@H](CC=C)CC(=O)OC(C)(C)C)Cc1c[nH]c2ccccc12,"inconclusive: 23.1 µM [cytotoxic, single point]",
COc1cccc(OCc2cc(C(=O)NCc3cnc4ccccn34)no2)c1,"inconclusive: 16.4 µM [cytotoxic, partial curve]",
O=C(Nc1cccc(-c2nc3ncccc3o2)c1)c1ccco1,"inconclusive: 32.6 µM [rising, single point]",
CC(C)(C)c1ccc(OCCCC(=O)NNC(=O)c2ccccc2O)cc1,"inconclusive: 18.4 µM [cytotoxic, partial curve]",
O=C1Nc2ccccc2N=C(c2ccc3c(c2)OCO3)C1N(C(=O)c1ccc2ccccc2c1)C1CC1 (centres undefined),"inconclusive: 29.1 µM [cytotoxic, single point]",
COc1ccccc1CCn1cnc(C)c1CC(C)C,"inconclusive: 23.1 µM [cytotoxic, single point]",
